## Primary screen of a compound library

Chains of the proteins cited; added tags and fusions are not shown. Residues count along the entry.
UniProt A4I591, 1-473: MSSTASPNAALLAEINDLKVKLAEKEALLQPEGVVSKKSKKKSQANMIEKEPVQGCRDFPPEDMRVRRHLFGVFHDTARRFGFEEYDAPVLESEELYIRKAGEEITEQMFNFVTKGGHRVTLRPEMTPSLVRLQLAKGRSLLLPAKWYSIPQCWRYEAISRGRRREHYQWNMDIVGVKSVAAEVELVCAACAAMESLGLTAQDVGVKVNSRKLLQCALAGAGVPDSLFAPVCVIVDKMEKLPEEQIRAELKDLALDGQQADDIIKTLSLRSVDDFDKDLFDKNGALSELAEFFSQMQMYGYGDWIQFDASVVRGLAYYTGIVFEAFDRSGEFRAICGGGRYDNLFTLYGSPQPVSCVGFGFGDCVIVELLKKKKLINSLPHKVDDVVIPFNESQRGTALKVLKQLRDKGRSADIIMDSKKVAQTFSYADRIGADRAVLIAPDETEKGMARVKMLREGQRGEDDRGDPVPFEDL

Source: ChEMBL document CHEMBL3988442, “University of Dundee, Small-Polar-MMV Screening Library” (2021).

Values are the deposited “Percent Effect”, in %.
The record does not define 0% and 100%; most values in the screen are far below 50% and negative numbers occur (in some assays of this library far below -100).
Compounds were drawn at random from those tested, without regard to their results.

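Histidine-tRNA ligase, Leishmania infantum (UniProt A4I591). Enzyme assay of histidyl-tRNA synthetase; the read-out is not stated. Concentration: 30 µM. The record gives no direction; compounds that gave an IC50 in retests scored well above the rest, so higher reads as stronger inhibition. The assay is labelled LdHisRS but filed under L. infantum. Of about 69,000 compounds tested this way, about 410 (0.6%) reached 50% or more in at least one test.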

With CCOC(=O)c1sc2ccsc2c1CNC(=O)CC the screen gave 12.31%.
With CC(C)(C)c1nc(CN(Cc2cccnc2)C2CN3CCC2CC3)no1 (stereo not given) the screen gave 16.13%.
With CN(C)Cc1ccccc1CN(C)C(=O)c1ccoc1 the screen gave 14.29%.
With Cn1cc(CNCCOc2ccc(F)c(F)c2)c(-c2cccnc2)n1 the screen gave 24.53%.
With CC(C)N(C)CC(=O)NCc1ccccc1N1CCN(C)CC1 the screen gave -1.429%.
With N#Cc1ccc(C(=O)N2CCC3(CC2)CC3)cc1 the screen gave 7.692%.
With Cc1cnc(N2C[C@H]3CCCC(N(C)Cc4ccccn4)[C@H]3C2)nc1 (stereo not given in full) the screen gave 24%.
With Cc1ccccc1CNC(=O)N1CCC(n2cncn2)CC1 the screen gave 14.04%.
With CN1CCC(N(C)C(=O)Nc2ccc(Cl)cc2)CC1 the screen gave -4.167%.
With c1cc(-c2nc(CN3CCc4c(ncn4C4CC4)C3)cs2)cs1 the screen gave 17.59%.
With CCOC(=O)c1nnc2ccccc2c1N1CCN(C(C)C)CC1 the screen gave 9.677%.
With CCCS(=O)(=O)N1CCC(Nc2c(F)cc(C#N)cc2F)CC1 the screen gave 16.67%.
With CCCNC(=O)C(C)Oc1ccccc1 (stereo not given) the screen gave 3.03%.
With COc1c(F)cc(CN2CCC3(CC2)C(C(=O)O)CC(=O)N3C)cc1Cl (stereo not given) the screen gave 8.772%.
With Cn1ccnc1C(NCc1ccc(Br)cc1)c1ccccc1 (stereo not given) the screen gave 16.51%.
With CCN1CCCC1CN(Cc1ccon1)CC1CCN(CCOC)CC1 (stereo not given) the screen gave 0%.
With Cc1nc2c(c(=O)[nH]1)CCN(C(=O)c1cccc3nccnc13)C2 the screen gave 1.042%.
With COCC1CN(C(=O)[C@H]2CCCO2)Cc2nnn(CC3CC3)c21 (stereo not given in full) the screen gave -8.547%.
With COc1ccccc1CC1CCCN1C(=O)c1cn[nH]c1C (stereo not given) the screen gave 2.618%.
With CC(C)NC(=O)N1CCN(C(=O)C(C)C)CC2(CC(=O)N(C)C2)C1 (stereo not given) the screen gave 10.26%.
With CNC(=O)CC1CCN(Cc2nc(-c3cccc(Cl)c3)oc2C)CC1 the screen gave 32.69%.
With CC(C)N1CC(C(=O)NCc2ccc(S(=O)(=O)N(C)C)cc2)CC1=O (stereo not given) the screen gave 7.194%.
With COc1ccc(N(C(=O)Cc2ccc(C)nc2)C(C)C)cc1F the screen gave 21.13%.
With CC(C)c1nc(C2CCCN2CCNS(C)(=O)=O)no1 (stereo not given) the screen gave 6.024%.
With CC(C)N1CCC(NC(=O)NCc2cccnc2)C1 (stereo not given) the screen gave -4.762%.
With COc1c(CNCc2cccnc2OC2CCCC2)c(C)nn1C the screen gave 15.38%.
With CC(C)(C)Cc1noc2ncc(C(=O)N3CCCSCC3)cc12 the screen gave 6.452%.
With Cn1nc(CNC(=O)C2CCC2)cc1C1CC1 the screen gave 8.989%.
With COc1ccc(-c2cc(C3CCN(C(C)=O)CC3)ccn2)cc1 the screen gave 18.56%.
With Cc1noc(CSc2ccc(C(F)(F)F)cn2)n1 the screen gave 14.29%.
With CN1CCC2(CCCN(C(=O)c3cncn3C)C2)CC1 the screen gave 3.419%.
With COCCN1CCN(CC(O)c2ccc(OC(F)(F)F)cc2)CC1 (stereo not given) the screen gave 13.16%.
With CC(=O)N1CCn2c(COCc3csc(C)n3)cnc2C1C (stereo not given) the screen gave 18.87%.
With CCOC(C)c1nc(Cn2cc(C(=O)NC)ccc2=O)cs1 (stereo not given) the screen gave 5.714%.
With CC(Nc1ncnc2c1NC(=O)CN2)c1ccccn1 (stereo not given) the screen gave 23.46%.
With Cc1cc(CNc2cncc(C(=O)N(C)C)n2)c2[nH]c(C)c(C)c2c1 the screen gave 25.42%.
With O=C(Cc1n[nH]c(-c2cncc(Br)c2)n1)NCc1cccnc1 the screen gave 4.918%.
With Cn1cc(CN2CCOCC3(CCN(C4CCOCC4)C3)C2)cn1 (stereo not given) the screen gave -3.636%.
With CC(C)CNC(=O)[C@H]1CCS(=O)(=O)[C@@H]2CN(Cc3ccc(Cl)cc3)C[C@H]12 the screen gave 13.46%.
With CS(=O)(=O)CCCOc1cccc(-n2cccn2)c1 the screen gave -1.724%.
With c1ccc(-c2nc(CN3CCCCC3Cn3cncn3)co2)cc1 (stereo not given) the screen gave 10.71%.
With CCCC(O)CN1CCC(=O)N(CC2CC2)Cc2cc3c(cc21)OCO3 (stereo not given) the screen gave 14.29%.
With CC(=O)c1ccc(NC(=O)NC(C)c2ccc3c(c2)CC(=O)N3)cc1 (stereo not given) the screen gave 21.88%.
With Cc1ccc2c(c1)OCCCC2NCc1nnc2n1CCCCC2 (stereo not given) the screen gave 9.434%.
With Cn1cc(CN2CCc3ccc(=O)n(CC4CC4)c3CC2)cn1 the screen gave 1.923%.
With Cc1cccc(CO[C@@H]2CO[C@@]3(CCN(S(=O)(=O)N(C)C)C3)C2)n1 the screen gave -10%.
With Cc1cc(-c2cncnc2)nc(C2CCCN2S(C)(=O)=O)n1 (stereo not given) the screen gave 11.27%.
With N#CC1(NC(=O)c2nccc3ccccc23)CCSCC1 the screen gave 0%.
With N#Cc1ccc(S(=O)(=O)N2CC(CC(=O)O)c3ccccc32)cc1 (stereo not given) the screen gave 0%.
With O=C1N(C2CCCCC2)CCCC12CCN(S(=O)(=O)c1cccnc1)C2 (stereo not given) the screen gave 26.76%.
With CNC(=O)N1CCc2nc(C(=O)Nc3cccnc3)sc2CC1 the screen gave 2.632%.
With COc1ccc(-n2cc(CCO)cn2)cc1C the screen gave 69.62%.
With CNC(=O)[C@H]1C[C@@H]2CN(C(=O)c3ccoc3)C[C@@H]2N1S(C)(=O)=O the screen gave 8.333%.
With CCS(=O)(=O)N1CCc2c(cccc2NCc2ncc[nH]2)C1 the screen gave 4.396%.
With CC(C)c1ccc(C(C)NC(=O)N2CCC(n3cncn3)CC2)cc1 (stereo not given) the screen gave -32.58%.

Repeated from the top, 4 entries:

{"compound": "CCOC(=O)c1sc2ccsc2c1CNC(=O)CC", "effect": 12.31}
{"compound": "CC(C)(C)c1nc(CN(Cc2cccnc2)C2CN3CCC2CC3)no1", "stereo": "stereo not given", "effect": 16.13}
{"compound": "CN(C)Cc1ccccc1CN(C)C(=O)c1ccoc1", "effect": 14.29}
{"compound": "Cn1cc(CNCCOc2ccc(F)c(F)c2)c(-c2cccnc2)n1", "effect": 24.53}